In all, about 320,000 compounds went through this assay and about 2,100 (0.66%) were called active. The shares of active, inactive and inconclusive entries below differ from those in the screen. Calls follow the shape of the dose curve; as a rule, active = well fitted inhibition curve with a large enough effect in the signal ratio, with a control signal flat (not every such curve was filed as active); inconclusive = small, poorly fitted or top-dose-only effect, or effect the other way, or a change in a side signal; inactive = flat fitted curve, though single readings scatter; the % refers to the signal ratio. Potencies beside an inconclusive call are fits to weak or partial responses and may not hold up.
Assay: qHTS Assay for Lipid Storage Modulators in Drosophila S3 Cells
Conditions: BODIPY lipid droplet fluorescence, 18-24 h, cells fed with added oleic acid; lipid storage change, negative = inhibition: at 46.1 µM (top of the series) unless noted
How it was run: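 Laser-scanning cytometry quantifies lipid droplet accumulation (500–530 nm total intensity; droplet/cell object ratio) in oleic acid-fed (400 uM added) Drosophila S3 cells treated with a concentration series. 20 uM Triacsin C defined 100% inhibition.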
% is scaled to controls: 0 for no effect and ±100 for the full control effect; potency is read from the fitted curve at half-maximal effect.

SMILES | lipid storage change, negative = inhibition | Potency
O=C(c1cc(Cl)ccc1O)N1CCN(S(=O)(=O)c2cccs2)CC1 | inconclusive | –
COc1ccccc1N(C)S(=O)(=O)c1ccc(Cl)c(C(=O)NCC2(N(C)C)CCCCC2)c1 | inconclusive: 7.9% | –
Cn1cc(C(=O)N/N=C/c2cc(Br)cs2)c2ccccc21 | inconclusive: 14.8% | –
O=C(c1cc(Cl)ccc1Cl)N1CCN(Cc2ccccc2)CC1 | inconclusive: 13.3% | –
Cc1cccc(N=C2NN=C(c3ccc4c(c3)OCCO4)CS2)c1 | inconclusive: 10.5% | –
CCCCN(C(=O)CCC(=O)Nc1cc(C)on1)C(C(=O)NC(C)(C)CC)c1cccc(OC)c1OC (stereo not given) | inconclusive: -23.6% | –
C=CCSC1=N/C(=C\c2ccsc2)C(=O)S1 | – | inconclusive: 3.26 µM [falling, full curve]
COc1ccccc1N1CCN(C2CCN(C(=O)c3cc(OC)c(OC)c(OC)c3)CC2)CC1 | inconclusive: 44.5% | –
O=C(COC(=O)c1cncc(Br)c1)NCc1ccccc1 | – | inconclusive: 1.84 µM [falling, partial curve, poor fit]
COc1ccc(OC)c(S(=O)(=O)NC(C)(C)C)c1 | inconclusive: 30.2% | –
COc1cccc(N(C(=O)c2snc(C(N)=O)c2N)C(C(=O)NCc2ccccc2)c2ccc(O)cc2)c1 (stereo not given) | inconclusive: 53% | –
O=C(NCCc1cccc(F)c1)[C@@H]1CSC2c3ccccc3C(=O)N21 (stereo not given in full) | inconclusive: -6.86% | –
O=C(CN1C(=O)C2CC=CCC2C1=O)Nc1ccc(F)cc1F (stereo not given) | – | inconclusive: 0.146 µM [falling, full curve, poor fit]
S=C(Nc1ccccc1)N1CCc2ccccc21 | – | inconclusive: 29.1 µM [activator, single point]
COCCN(C(=O)c1csnn1)C(C(=O)NC1CCCCC1)c1ccc(C)cc1 (stereo not given) | inconclusive: -51.1% | –
COc1ccccc1NC(=S)N(Cc1ccco1)Cc1cc2cc(C)ccc2[nH]c1=O | – | inconclusive: 4.61 µM [activator, partial curve]
CCCCN(C(=O)c1cc(S(=O)(=O)N2CCCCCC2)ccc1OC)c1c(N)n(CCC)c(=O)[nH]c1=O | – | inconclusive: 6.51 µM [rising, single point]
CN1CCN(C(=O)C2=C[C@@H](c3ccc4c(c3)OCO4)C[C@@H](OCc3ccc(CO)cc3)O2)CC1 | inconclusive: -19.4% | –
Cc1ccc(S(=O)(=O)N(CC(=O)Nc2ccc(C)c(Cl)c2)C(=O)N2CCN(C)CC2)cc1 | inconclusive: -24.9% | –
COc1ccc(NC(=O)C2CCCNC2=O)cc1 (stereo not given) | inconclusive: 47.2% | –
O=C(N/N=C/c1cccc([N+](=O)[O-])c1)c1cnccn1 | – | inconclusive: 29.1 µM [rising, partial curve, poor fit]
CCC(=O)Nc1nnc(Cc2ccccc2)s1 | – | inconclusive: 29.1 µM [activator, single point]
CCOc1ccccc1NC(=O)NC1CCCCCCC1 | inconclusive: -19.3% | –
COc1ccccc1N1CCN(S(=O)(=O)c2cc(-c3cc(C)no3)ccc2C(C)C)CC1 | inconclusive: 20.3% | –
NC(=NCCc1c[nH]c2ccccc12)NC(=O)c1ccc(F)cc1 | inconclusive: 16.1% | –

SMILES | lipid storage change, negative = inhibition | Potency
CCC(=O)Nc1ccc(NC(=O)CSc2nnnn2-c2ccc3c(c2)OCCO3)cc1 | inactive: 7.85% | –
COc1cc(/C=C/C(=O)Nc2nc3ccc(S(=O)(=O)N(C)C)cc3s2)cc(OC)c1OC | inconclusive: -80.6% | –
O=C(Nc1ccccc1Cl)Oc1ccc2ccccc2c1 | inconclusive: 34.3% | –
C#CCNc1nc(CC)nc2c1nnn2Cc1ccccc1F | – | inconclusive: 0.731 µM [activator, full curve]
CCn1c(SCC(=O)Nc2nc(C)c(C)s2)nnc1-c1cccnc1 | – | inconclusive: 0.231 µM [rising, full curve, poor fit]
C/C(=C\C(=O)c1ccc(Cl)cc1)NCc1ccc2c(c1)OCO2 | – | inconclusive: 0.13 µM [falling, full curve, poor fit]
O=C(NCC(c1cccnc1)N1CCOCC1)c1cccc(Cl)c1 (stereo not given) | inconclusive: -12.9% | –
CCOC(=O)N1CCN(Cc2nc3ccc([N+](=O)[O-])cc3c(=O)n2-c2ccc(OC)cc2OC)CC1 | inconclusive: 11.1% | –
Cc1nc2sc(C(c3ccc(Br)cc3)N3CC(C)OC(C)C3)c(O)n2n1 (stereo not given) | inconclusive: -48.2% | –
CCC1Nc2ncnc(N3CCCCC3)c2N(Cc2ccc(Br)cc2)C1=O (stereo not given) | – | inconclusive: 29.1 µM [activator, single point]
Cc1noc(C)c1C(=O)N(CC(=O)Nc1ccccc1Br)Cc1ccco1 | inconclusive: 19.4% | –
CCc1ccccc1NC(=O)NC1CCCCCCC1 | – | inconclusive: 0.0058 µM [activator, full curve, poor fit]
CC(=O)Nc1ccccc1OCC(=O)c1cc(C)n(Cc2cccs2)c1C | inconclusive: -48.9% | –
COc1ccc(NC(=O)[C@@H]2CCCN2C(=O)c2cccs2)cc1S(=O)(=O)N1CCCCC1 | inconclusive: -0.892% | –
CC1(NC(=O)CSc2nnc(-c3c[nH]c4ccccc34)n2C2CC2)CCS(=O)(=O)C1 (stereo not given) | inconclusive: 0.784% | –
CCOC(=O)CSc1nnc(NC(=O)c2ccco2)s1 | inconclusive: -31.9% | –
COC(=O)c1cc(S(=O)(=O)N2CCN(c3cccc(Cl)c3)CC2)c[nH]1 | – | inconclusive: 7.31 µM [falling, partial curve]
CCCCCn1c2nc3ccccc3nc2c2c(=O)n(CC3CCCO3)c(C)nc21 (stereo not given) | inconclusive: 13.2% | –
CC(C)C(c1nnnn1C1CCCCC1)N1CCOCC1 (stereo not given) | – | inconclusive: 29.1 µM [falling, single point]
C=CCOc1ccc(Br)cc1CNCC | inconclusive: 37.2% | –
Cc1ccc(NC(=S)N(Cc2cccs2)Cc2cc3cc(C)ccc3[nH]c2=O)cc1 | inconclusive: 28.2% | –
Cc1ccc(S(=O)(=O)N2CCOCC2)cc1NC(=O)c1cccc(S(=O)(=O)N2CCCC2)c1 | inconclusive: -3.59% | –
Cc1cnc(C(=O)OC(C(=O)c2ccccc2)c2ccccc2)cn1 (stereo not given) | inconclusive: 4.43% | –
CCOc1ccc(NC(=O)CN2C(=O)NC(C)(c3ccc(OC(F)F)cc3)C2=O)cc1 (stereo not given) | inconclusive: 16.3% | –
CSc1ccccc1OCc1cc(C(=O)NC(C)CCn2cccn2)no1 (stereo not given) | – | inconclusive: 29.1 µM [activator, single point]

Ordered by length of the SMILES (rising): part of the list above.
SMILES | lipid storage change, negative = inhibition | Potency
C=CCOc1ccc(Br)cc1CNCC | inconclusive: 37.2% | –
COc1ccc(OC)c(S(=O)(=O)NC(C)(C)C)c1 | inconclusive: 30.2% | –
Cc1ccc(S(=O)(=O)N2CCOCC2)cc1NC(=O)c1cccc(S(=O)(=O)N2CCCC2)c1 | inconclusive: -3.59% | –

(next part)

SMILES | lipid storage change, negative = inhibition | Potency
O=c1[nH]c2ccc(NS(=O)(=O)c3ccc(F)c(Cl)c3)cc2[nH]1 | – | inconclusive: 11.6 µM [falling, single point]
COc1ccccc1N1CCN(Cc2cc(=O)c(OCC#N)co2)CC1 | – | inconclusive: 29.1 µM [activator, single point]
COc1ccc(C[C@H]2CN3C(=NC[C@@H]3Cc3ccc(O)cc3)N2C[C@H](C)NC(=O)CCC2CCCCC2)cc1 | inconclusive: 11.8% | –
CCOCCCn1c(=NC(=O)c2ccc(OC)c(OC)c2)c(C#N)cc2c(=O)n3cccc(C)c3nc21 | – | inconclusive: 0.82 µM [activator, partial curve]
O=C(Nc1ccc(-c2nnc3n2CCCCC3)cc1)c1ccco1 | inconclusive: 23.4% | –
CCCCn1c(SCC(=O)NC2CCS(=O)(=O)C2)nc2ccccc2c1=O (stereo not given) | inconclusive: -14.2% | –
CCOCCCNC(=O)C(c1ccc(OC)cc1)N(Cc1cccs1)C(=O)c1ccccn1 (stereo not given) | – | inconclusive: 25.9 µM [falling, single point]
CC(NC(=O)c1ccco1)C1CCCO1 (stereo not given) | inconclusive: 34.6% | –
Cc1ccc(N2CC(C(=O)N3CCC(C(=O)NC(C)(C)C)CC3)CC2=O)cc1 (stereo not given) | – | inconclusive: 29.1 µM [falling, single point]
COc1cc(/C=N/NC(=O)c2cccs2)ccc1O | inconclusive: 9.3% | –
Cc1ccc(N/C=C/C(=O)c2ccccc2)cc1C | inconclusive: -7.28% | –
Cc1ccc(N2C(=O)[C@@H]3C(C(=O)C(c4ccccc4)c4ccccc4)=NN[C@@H]3C2=O)cc1 | inconclusive: 6.15% | –
O=C(CSc1nncn1-c1ccccn1)Nc1cccc(Cl)c1 | inconclusive: -5.62% | –
COC(=O)CSc1nnc(-c2cccs2)n1-c1ccc(Cl)cc1 | inconclusive: -58.4% | –
COc1ccc(C2/C=C\CN(C(=O)C3CC3)[C@H](Cc3ccccc3)C(=O)N2Cc2ccc(F)cc2)cc1 (stereo not given in full) | inconclusive: -11.5% | –
CC1CCCN(C(=O)c2cc(S(=O)(=O)N3CCCCC3)c[nH]2)C1 (stereo not given) | – | inconclusive: 3.66 µM [falling, single point]
O=C(CC1SC(N2CCCC2)=NC1=O)Nc1ccc(C(=O)N2CCCC(C(F)(F)F)C2)cc1 (stereo not given) | inconclusive: 35.6% | –
CC(C)C(=O)NC(Nc1cccc([N+](=O)[O-])c1)C(Cl)(Cl)Cl (stereo not given) | inconclusive: -20.5% | –
COc1cc([N+](=O)[O-])ccc1NC(=O)NCc1ccco1 | inconclusive: -1.29% | –
O=C(N/N=C\c1ccc(O)c([N+](=O)[O-])c1)c1ccccc1-n1cccc1 | – | inconclusive: 23.1 µM [activator, single point]
Brc1ccc2c(c1)CN1CCCC1=N2 | inconclusive: 26% | –
COc1ccc(C(CNC(=O)COc2ccccc2)N2CCOCC2)cc1 (stereo not given) | inconclusive: 54.8% | –
COc1ccc(NS(=O)(=O)c2cccc(C(=O)NC3CCN(Cc4ccccc4)CC3)c2)cc1 | inconclusive: 29.6% | –
O=C1/C(=C\c2cccnc2)CN(Cc2ccccc2)C/C1=C\c1cccnc1 | – | active: 2.31 µM
CC(=O)[C@@]1(O)CC[C@H]2[C@@H]3C[C@H](C)C4=CC(=O)C=C[C@]4(C)[C@@]3(F)[C@@H](O)C[C@@]21C | inconclusive: -1.18% | –

— PubChem BioAssay AID2685 (National Center for Advancing Translational Sciences (NCATS), 2010)
